In the supplement of paper PMC3334620:
Whole data set: some 33,000 sequences, median “E-score (-0.5 to 0.5)” near -0.016, cut for the highest 2% near 0.3. This is one part of the list.

Molecular target: T1, Yer184c (UniProt P39961)
T1 sequence: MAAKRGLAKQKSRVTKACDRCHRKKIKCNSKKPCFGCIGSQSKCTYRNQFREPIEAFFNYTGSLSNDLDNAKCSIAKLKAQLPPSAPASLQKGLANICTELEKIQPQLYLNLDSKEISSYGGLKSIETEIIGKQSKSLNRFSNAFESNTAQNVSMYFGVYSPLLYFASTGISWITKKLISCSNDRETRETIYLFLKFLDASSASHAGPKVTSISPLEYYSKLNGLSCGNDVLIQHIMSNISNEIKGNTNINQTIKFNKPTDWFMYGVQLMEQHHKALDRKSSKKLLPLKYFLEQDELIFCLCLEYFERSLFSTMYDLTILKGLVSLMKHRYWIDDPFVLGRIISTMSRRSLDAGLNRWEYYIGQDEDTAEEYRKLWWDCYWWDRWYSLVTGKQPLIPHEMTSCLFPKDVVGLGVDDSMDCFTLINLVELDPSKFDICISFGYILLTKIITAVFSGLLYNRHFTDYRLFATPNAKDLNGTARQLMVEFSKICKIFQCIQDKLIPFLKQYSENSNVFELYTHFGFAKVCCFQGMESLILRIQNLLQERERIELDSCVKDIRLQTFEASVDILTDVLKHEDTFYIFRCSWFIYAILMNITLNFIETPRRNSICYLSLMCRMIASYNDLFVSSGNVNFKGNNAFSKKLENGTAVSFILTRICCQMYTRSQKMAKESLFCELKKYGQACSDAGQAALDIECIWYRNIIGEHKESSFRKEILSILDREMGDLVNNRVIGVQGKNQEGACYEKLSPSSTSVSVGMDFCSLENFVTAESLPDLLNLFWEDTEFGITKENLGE
Experiment: PBM E-score (8-mer binding enrichment) (E-score (-0.5 to 0.5)); higher = stronger / more preferred TF binding
Conditions: protein concentration: 100 nM; construct: GST-full length
Method in brief: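 The E-score, a modified Wilcoxon-Mann-Whitney statistic, was computed by the Universal PBM Analysis Suite for every ungapped eight-base word pooled with its reverse complement. Scans behind it were normalised with masliner after bound GST-tagged yeast transcription factors were detected with fluorescent anti-GST. The proteins, at about 100-200 nM, had been applied to universal all-10-mer Agilent arrays made double-stranded by primer extension.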

Row | Sequence | PBM E-score
1 | ACCATCAC | -0.0965
2 | GCGAACTA | 0.0917
3 | AGCATTGC | -0.0349
4 | CGGCAAAG | 0.201
5 | GGGTACAA | -0.127
6 | ACGTTTCA | 0.0546
7 | CGACCGGC | 0.27
8 | AGACGTGC | 0.0927
9 | GCGTAAGA | 0.0272
10 | AGCCTGTA | -0.0568
11 | AACGGAGG | 0.0793
12 | AAAATCCA | -0.0451
13 | GACTACCC | -0.266
14 | AATAGGCG | 0.135
15 | AACTCTGT | 0.0128
16 | CGCCTACC | -0.189
17 | GTCCTACA | 0.127
18 | ACTTGATC | 0.067
19 | GGACGTTA | -0.0625
20 | AGCATAAG | 0.0447
21 | AATCTGTA | 0.116
22 | ATCACATC | 0.0225
23 | AAACATCT | 0.122
24 | GGTATCCA | 0.125

Row | Sequence | PBM E-score
25 | AACTAGCA | 0.0764
26 | GTTGGTCA | -0.00964
27 | ACATCCTG | 0.0484
28 | AGTAATCG | 0.00859
29 | AGACTGCT | -0.248
30 | AGATCTGC | 0.135
31 | GCGTTCCC | -0.0546
32 | ATCACCAA | -0.0977
33 | CCCGGACG | -0.0945
34 | AGACCGCC | -0.101
35 | CGCATTTA | 0.123
36 | CCCAGAGG | -0.375
37 | ATCCCACC | -0.0176
38 | AGGCGCAA | 0.0513
39 | TTCCGCAA | 0.259
40 | ATCCGAAG | 0.302
41 | ATATCCCG | 0.223
42 | CTCAGATA | 0.143
43 | AACTTCGA | 0.0739
44 | AATAACAT | 0.109
45 | AGAACGTG | 0.0203
46 | AAGTATGT | 0.027
47 | CTTATTGC | -0.216
48 | CAGGCGCA | -0.0642

Row | Sequence | PBM E-score
49 | AGCAGTGC | -0.185
50 | TTGCGCAA | -0.0396
51 | TAGGCGGA | -0.00816
52 | CGGTGGGC | -0.0538
53 | CAACCTTG | -0.103
54 | AATTTACT | 0.161
55 | TAGGGTCA | -0.2
56 | ACATCGAC | -0.0912
57 | CCACTATC | -0.109
58 | GTTTGCTA | 0.0684
59 | GTAACATA | 0.0708
60 | ATCATTGA | 0.182
61 | CTTCCGCC | 0.024
62 | ATGAGAGC | -0.0686
63 | GTATGACA | -0.0378
64 | GAACTTAA | 0.133
65 | AGGCACGC | -0.218
66 | TTAACGAA | 0.262
67 | CATAGTAC | -0.0277
68 | GAACCCTC | -0.248
69 | GGTTCCGA | 0.278
70 | CTTGTAGA | -0.233
71 | CGAACTAG | 0.183
72 | CAGTTTCA | -0.151

Looked up one by one from the list above (3):
Row | Sequence | PBM E-score
66 | TTAACGAA | 0.262
69 | GGTTCCGA | 0.278
51 | TAGGCGGA | -0.00816

(cont.)

Row | Sequence | PBM E-score
73 | CGTCTATC | -0.118
74 | GTACCCAC | -0.122
75 | GCAGTGAA | 0.0843
76 | AACGGTGT | -0.119
77 | CAGTACTC | -0.232
78 | CACACATA | 0.0575
79 | CTGTGCAA | -0.0616
80 | CCGTGACC | 0.0268
81 | CCTGAGCG | -0.161
82 | TACGTCAA | -0.258
83 | ACCATTAA | 0.206
84 | ATTCCTTA | 0.0278
85 | AACCCAGA | -0.0353
86 | AACTAATG | 0.148
87 | AATTTGCC | 0.0902
88 | CTTCGACC | -0.0596
89 | ATACCAAT | -0.0356
90 | GATTAGCC | 0.0506
91 | CAATGCCG | 0.22
92 | AAATACGG | 0.116
93 | TATTCTCA | 0.154
94 | AGGCTCTC | -0.0895

Part of the list above, reformatted.
Row,Sequence,PBM E-score
47,CTTATTGC,-0.216
48,CAGGCGCA,-0.0642
